# No constants are given. Whether binding was seen depends on the method and setting.
# T1: NDP52(10-126) (human, UniProt Q13137 10-126)
# T1 sequence (looked up): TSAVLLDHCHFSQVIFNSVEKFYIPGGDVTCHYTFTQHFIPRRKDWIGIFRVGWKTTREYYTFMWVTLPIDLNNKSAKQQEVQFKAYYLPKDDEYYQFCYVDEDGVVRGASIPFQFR
# T2: NDP52(10-126) Y104R (human) (UniProt Q13137)
# T2 sequence: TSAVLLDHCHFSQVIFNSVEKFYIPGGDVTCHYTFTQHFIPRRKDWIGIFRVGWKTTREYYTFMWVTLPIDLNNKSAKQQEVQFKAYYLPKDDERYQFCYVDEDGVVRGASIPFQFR
# T3: NDP52(10-126) V61E (human) (UniProt Q13137)
# T3 sequence: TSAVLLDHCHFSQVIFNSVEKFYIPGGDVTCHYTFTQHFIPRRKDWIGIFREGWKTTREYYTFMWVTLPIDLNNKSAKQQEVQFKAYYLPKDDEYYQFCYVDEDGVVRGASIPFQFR
# T4: NDP52(10-126) Q106E (human) (UniProt Q13137)
# T4 sequence: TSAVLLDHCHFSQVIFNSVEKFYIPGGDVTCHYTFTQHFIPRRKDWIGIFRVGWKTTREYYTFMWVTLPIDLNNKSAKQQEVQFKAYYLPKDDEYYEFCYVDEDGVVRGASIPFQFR
# B1: NDP52(10-126) (domain or fragment, UniProt Q13137 10-126)
# chain: TSAVLLDHCHFSQVIFNSVEKFYIPGGDVTCHYTFTQHFIPRRKDWIGIFRVGWKTTREYYTFMWVTLPIDLNNKSAKQQEVQFKAYYLPKDDEYYQFCYVDEDGVVRGASIPFQFR
# Key:
# NDP52(10-126) [1] = target: T1, NDP52(10-126); experiment: ITC
# NDP52(10-126) [2] = target: T1, NDP52(10-126); experiment: crystal structure
# NDP52(10-126) [3] = target: T1, NDP52(10-126); experiment: AUC
# [4] = target: T2, NDP52(10-126) Y104R (human); experiment: ITC
# [5] = target: T3, NDP52(10-126) V61E (human); experiment: ITC
# [6] = target: T4, NDP52(10-126) Q106E (human); experiment: ITC
molecule,measurement,setting,value
NAP1(33-75) S37K (from UniProt Q9H6S1 33-75) (domain or fragment),binding,NDP52(10-126) [1],no binding
NAP1(33-75) A44E (from UniProt Q9H6S1 33-75) (domain or fragment),binding,NDP52(10-126) [1],no binding
B1,binding,NDP52(10-126) [2],no binding
same,binding,NDP52(10-126) [3],no binding
"ESVASHFALVTAYEDIKKRLKDSEKENSLLKKRIRFLEEKLIA (domain or fragment, human, UniProt Q9H6S1 33-75, looked up) [NAP1(33-75)]",binding,[4],no binding
same,binding,[5],no binding
same,binding,[6],no binding

# Reference: article doi:10.1101/264085 (bioRxiv, 2018)
